Assay results published in PMC7231995.

Columns and labels:
[1] = molecular target: T1, YqgP-sfGFP (functional fusion of Bacillus subtilis rhomboid protease YqgP with sfGFP) (Bacillus subtilis) (UniProt P54493); test: affinity purification with mass spectrometry; YqgP-sfGFP baits captured on anti-GFP antibody resin (Chromotek) from B. subtilis membranes solubilised with 1% NP-40, 3 h at 4°C; label-free NanoLC-MS/MS; control: wild-type strain BTM2 without bait
T1 sequence: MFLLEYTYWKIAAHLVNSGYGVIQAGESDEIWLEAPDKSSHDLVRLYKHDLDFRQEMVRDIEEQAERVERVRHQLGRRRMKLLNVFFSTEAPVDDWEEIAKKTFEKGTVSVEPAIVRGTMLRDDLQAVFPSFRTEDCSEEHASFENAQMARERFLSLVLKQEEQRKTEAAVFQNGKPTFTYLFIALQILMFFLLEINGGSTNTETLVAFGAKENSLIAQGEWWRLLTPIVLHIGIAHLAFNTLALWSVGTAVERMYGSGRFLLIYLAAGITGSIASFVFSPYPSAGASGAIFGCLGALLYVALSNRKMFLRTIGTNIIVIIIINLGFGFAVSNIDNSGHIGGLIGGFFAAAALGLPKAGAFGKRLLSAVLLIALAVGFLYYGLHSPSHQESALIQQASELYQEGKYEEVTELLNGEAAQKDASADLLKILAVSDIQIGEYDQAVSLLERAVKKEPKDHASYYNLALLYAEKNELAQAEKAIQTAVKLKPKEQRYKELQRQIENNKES

[2] = molecular target: T2, YqgP.S288A-sfGFP (catalytically dead YqgP fused with sfGFP) (Bacillus subtilis) (UniProt P54493); test: as above
T2 sequence: T1 sequence with S288A

binding [1]	binding [2]	Substance
binds	binds	ATPase subunit A (from UniProt P37808 1-502)
binds	binds	ATPase subunit D (from UniProt P37809 1-473)
binds	binds	ATPase subunit G (from UniProt P37810 1-287)
binds	binds	FtsH, membrane-anchored ATP-dependent processive zinc metalloprotease (from UniProt P37476 1-637) (enzyme)

Changes are numbered by the printed parent chain. No constants are given. Whether binding was seen depends on the method and setting. Binding seen in cells or lysates may run through a third protein. These calls come from enrichment with a bait or labelling near it, and not all partners need be listed. Tags and fused reporters may be left off the sequences shown.
